This is one part of the list.
The compounds below were run on T1, CTL2-GFP (C. trachomatis L2/434/Bu, GFP-expressing). Conditions: bulk GFP, single well; 28.5 h, 10 µM; inhibitor.
T1 construct: L2/434/Bu, GFP-expressing
Design: species or system HeLa; Intracellular C. trachomatis growth in HeLa cells, bulk GFP fluorescence relative to DMSO

Structure (SMILES)	% of control remaining
Cc1ccc2cc(CN(Cc3ccco3)C(=O)C3CCCO3)c(O)nc2c1 (centres unmarked) [CBK269300]	92.0879%
Cc1ccc2cc(C(=O)N3CCCCC3CN3CCOCC3)[nH]c2c1 (centres unmarked) [CBK304374]	110.249%
O=C(CNC(=O)c1ccco1)Nc1cccc(-c2nc3ccccc3s2)c1 [CBK295142]	159.289%
Cc1cc(C)n(CC(=O)NC2CCCOc3c(F)cccc32)n1 (centres unmarked) [CBK305553]	120.13%
CCNc1cc(-c2ccc(CC(C)C)cc2)ncn1 [CBK090884]	113.29%
COc1ccc(Nc2nc(N)nc(CSCCO)n2)cc1 [CBK266714]	162.029%
O=C(N[C@@H](Cn1ccc(=O)[nH]c1=O)C(=O)O)C1CCCCC1 [CBK289651]	134.072%
Cc1cc(C)n(C(=O)c2cn3cc(Cl)ccc3n2)n1 [CBK288185]	95.7352%
c1coc(-c2nc3n(n2)CCS3)c1 [CBK007565]	168.528%
CC(C)Nc1nc2ccccc2nc1OCCCN(C)C [CBK113416]	89.0813%
COc1cc(/C=C2\C(=O)N(c3ccc(NC(C)=O)cc3)N=C2c2ccccc2)ccc1O [CBK265664]	100%
CC(NC(=O)N1CCN(CCc2ccccc2)CC1)c1ccccc1 (centres unmarked) [CBK158935]	140.378%
COc1ccc(C(=O)N2CCN(Cc3cccnc3)CC2)cc1OC [CBK263321]	121.878%
C[C@@H]1CN(C(=O)c2ccc3[nH]nnc3c2)C[C@H](C)O1 [CBK200369]	71.2441%
CCCC/C=C/c1cncc(N[C@H](CO)C(C)C)n1 [CBK065314]	166.175%
COc1ccc(N2CCN(c3nccnc3-c3ccc(C(C)=O)s3)CC2)cc1OC [CBK036968]	86.794%
NCCCNC(=O)c1ccc(/C=N/O)nc1 [CBK264524]	100%
Cc1ccc2oc(CN3CCC(O)(c4cccnc4)CC3)c(C)c2c1 [CBK282816]	167.594%
Cc1csc(C(Cc2ccsc2)NC(=O)CCn2cccn2)n1 (centres unmarked) [CBK285149]	115.619%
Cc1nn(CCC(=O)NCCN2CCC(C)CC2)c(C)c1Cl [CBK281571]	111.499%
CC(=O)N(C)c1ccc(NC(=O)c2ccccc2C(=O)O)cc1 [CBK270693]	137.595%
COc1ccc(C)cc1S(=O)(=O)N1CCN(C(c2ccccc2)c2ccccc2)CC1 [CBK263977]	102.331%
O=C(O)/C=C/C(=O)Nc1ccccc1C(=O)O [CBK261461]	106.189%

An excerpt of these results, bar-delimited:
Structure (SMILES) | % of control remaining
C[C@@H]1CN(C(=O)c2ccc3[nH]nnc3c2)C[C@H](C)O1 [CBK200369] | 71.2441%
CCCC/C=C/c1cncc(N[C@H](CO)C(C)C)n1 [CBK065314] | 166.175%

From PMC12040169 (PLOS Biology, 2025)
